The supplement of paper PMC4604168 (melanoma cell lines)
The list shows a part of the results. Many values rest on one well or one pass, so single values are uncertain.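 Imaging used 1,536-well plates; nuclei positive for cleaved PARP by antibody were divided by total DNA-stained nuclei to yield the apoptosis fraction. Doses for screening kept most cells viable, and cell lines differ markedly in resting and induced cleaved-PARP levels.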

Tested on: WM1745
Test: cleaved PARP positive nuclei fraction relative to DMSO control; melanoma cells; higher = more apoptosis
Details: library dose: low library concentration; 72 h

SMILES | cleaved PARP positive nuclei fraction [%]
COc1ccc(-c2ccc3c(N4CCOCC4)nc(N4C[C@@H](C)O[C@@H](C)C4)nc3n2)cc1CO + O=C(Oc1ccc([N+](=O)[O-])cc1)N1CCC(C(O)(c2ccc3c(c2)OCO3)c2ccc3c(c2)OCO3)CC1 [JZL184] (first compound 0.02 µM, partner dose 1 µM) | 102
C[C@@H](Oc1cc(-c2cnn(C3CCNCC3)c2)cnc1N)c1c(Cl)ccc(F)c1Cl [Crizotinib] + Cc1cc(SCc2sc(-c3ccc(C(F)(F)F)c(F)c3)nc2C)ccc1OCC(=O)O [GW0742] (first compound 0.2 µM, partner dose 2 µM) | 81.5
Cn1nnc2c(C(N)=O)ncn2c1=O [temozolomide] + C/C(O)=C(\C#N)C(=O)Nc1cc(Br)ccc1Br [LFM-A13] (first compound 2 µM, partner dose 2 µM) | 90.9
CNC(=O)c1cc(Oc2ccc(NC(=O)Nc3ccc(Cl)c(C(F)(F)F)c3)cc2)ccn1 [sorafenib] + Cc1cc(SCc2sc(-c3ccc(C(F)(F)F)c(F)c3)nc2C)ccc1OCC(=O)O [GW0742] (first compound 0.4 µM, partner dose 2 µM) | 244
Cn1cnc2c(F)c(Nc3ccc(Br)cc3Cl)c(C(=O)NOCCO)cc21 [selumetinib] + C[C@]12O[C@H](C[C@]1(O)CO)n1c3ccccc3c3c4c(c5c6ccccc6n2c5c31)CNC4=O [Lestaurtinib] (first compound 0.015 µM, partner dose 0.004 µM) | 227
CS(=O)(=O)CCNCc1ccc(-c2ccc3ncnc(Nc4ccc(OCc5cccc(F)c5)c(Cl)c4)c3c2)o1 [lapatinib] + O=C(Oc1ccc([N+](=O)[O-])cc1)N1CCC(C(O)(c2ccc3c(c2)OCO3)c2ccc3c(c2)OCO3)CC1 [JZL184] (first compound 0.8 µM, partner dose 1 µM) | 95.7
Nc1ccn([C@@H]2O[C@H](CO)[C@@H](O)C2(F)F)c(=O)n1 [gemcitabine] + Cc1cc(SCc2sc(-c3ccc(C(F)(F)F)c(F)c3)nc2C)ccc1OCC(=O)O [GW0742] (first compound 0.0004 µM, partner dose 2 µM) | 125
CS(=O)(=O)CCNCc1ccc(-c2ccc3ncnc(Nc4ccc(OCc5cccc(F)c5)c(Cl)c4)c3c2)o1 [lapatinib] + C[As](C)SC[C@H](NC(=O)CC[C@H](N)C(=O)O)C(=O)NCC(=O)O [Darinaparsin] (first compound 0.8 µM, partner dose 0.4 µM) | 91.9
C[C@]1(c2nc3c(C(N)=O)cccc3[nH]2)CCCN1 [Veliparib] + Cc1cc(SCc2sc(-c3ccc(C(F)(F)F)c(F)c3)nc2C)ccc1OCC(=O)O [GW0742] (first compound 1.4 µM, partner dose 2 µM) | 100
CN1CCN(c2ccc3nc(-c4c(N)c5c(F)cccc5[nH]c4=O)[nH]c3c2)CC1 [Dovitinib] + O=C(Oc1ccc([N+](=O)[O-])cc1)N1CCC(C(O)(c2ccc3c(c2)OCO3)c2ccc3c(c2)OCO3)CC1 [JZL184] (first compound 0.1 µM, partner dose 1 µM) | 115
COC(=O)c1sccc1S(=O)(=O)Nc1ccc(Nc2ccccc2)cc1OC + C/C(O)=C(\C#N)C(=O)Nc1cc(Br)ccc1Br [LFM-A13] (first compound 1 µM, partner dose 2 µM) | 108
Cc1cc(Nc2cc(N3CCN(C)CC3)nc(Sc3ccc(NC(=O)C4CC4)cc3)n2)n[nH]1 [Tozasertib] + O=C(Oc1ccc([N+](=O)[O-])cc1)N1CCC(C(O)(c2ccc3c(c2)OCO3)c2ccc3c(c2)OCO3)CC1 [JZL184] (first compound 0.006 µM, partner dose 1 µM) | 105
CCN(CC)CCCCNc1ncc2cc(-c3cc(OC)cc(OC)c3)c(NC(=O)NC(C)(C)C)nc2n1 + O=C(Oc1ccc([N+](=O)[O-])cc1)N1CCC(C(O)(c2ccc3c(c2)OCO3)c2ccc3c(c2)OCO3)CC1 [JZL184] (first compound 0.1 µM, partner dose 1 µM) | 91.7
N.N.[Cl][Pt][Cl] [cisplatin] + CC(=O)c1c(C)c2cnc(Nc3ccc(N4CCNCC4)cn3)nc2n(C2CCCC2)c1=O [palbociclib] (first compound 1.6 µM, partner dose 0.04 µM) | 90.2
C[C@]12O[C@H](C[C@]1(O)CO)n1c3ccccc3c3c4c(c5c6ccccc6n2c5c31)CNC4=O [Lestaurtinib] + C#Cc1cccc(Nc2ncnc3cc(OCCOC)c(OCCOC)cc23)c1 [erlotinib] (first compound 0.004 µM, partner dose 0.8 µM) | 101
Cn1cc(C2=C(c3cn(C4CCN(Cc5ccccn5)CC4)c4ccccc34)C(=O)NC2=O)c2ccccc21 [Enzastaurin] + CNC(=O)c1cc(Oc2ccc(NC(=O)Nc3ccc(Cl)c(C(F)(F)F)c3)cc2)ccn1 [sorafenib] (first compound 0.8 µM, partner dose 0.4 µM) | 96.9
OCc1c[nH]c2ccccc12 [Indole-3-carbinol] + C[As](C)SC[C@H](NC(=O)CC[C@H](N)C(=O)O)C(=O)NCC(=O)O [Darinaparsin] (first compound 0.8 µM, partner dose 0.4 µM) | 91.9
C[C@]12O[C@H](C[C@]1(O)CO)n1c3ccccc3c3c4c(c5c6ccccc6n2c5c31)CNC4=O [Lestaurtinib] + CS(=O)(=O)CCNCc1ccc(-c2ccc3ncnc(Nc4ccc(OCc5cccc(F)c5)c(Cl)c4)c3c2)o1 [lapatinib] (first compound 0.004 µM, partner dose 0.8 µM) | 86.1
C/C(O)=C(\C#N)C(=O)Nc1cc(Br)ccc1Br + O=C(Oc1ccc([N+](=O)[O-])cc1)N1CCC(C(O)(c2ccc3c(c2)OCO3)c2ccc3c(c2)OCO3)CC1 [JZL184] (first compound 2 µM, partner dose 1 µM) | 101
C[As](C)SC[C@H](NC(=O)CC[C@H](N)C(=O)O)C(=O)NCC(=O)O [Darinaparsin] + Cc1cc(N2CCOCC2)cc2[nH]c(-c3c(NC[C@@H](O)c4cccc(Cl)c4)cc[nH]c3=O)nc12 [BMS536924] (first compound 0.4 µM, partner dose 0.2 µM) | 109
N.N.[Cl][Pt][Cl] [cisplatin] + Clc1ccc(Nc2nnc(Cc3ccncc3)c3ccccc23)cc1 [vatalanib] (first compound 1.6 µM, partner dose 2 µM) | 101
C/C(O)=C(\C#N)C(=O)Nc1cc(Br)ccc1Br + O=C1NC(=O)/C(=C/c2ccc(-c3ccc(F)cc3O)o2)S1 [AS252424] (first compound 2 µM, partner dose 1 µM) | 93.1
Cn1cc(C2=C(c3cn(C4CCN(Cc5ccccn5)CC4)c4ccccc34)C(=O)NC2=O)c2ccccc21 [Enzastaurin] + COc1cc2ncnc(Nc3ccc(Oc4ccccc4)cc3)c2cc1OC [SrcI1] (first compound 0.8 µM, partner dose 2 µM) | 97.5
C[C@]1(c2nc3c(C(N)=O)cccc3[nH]2)CCCN1 [Veliparib] + C/C(O)=C(\C#N)C(=O)Nc1cc(Br)ccc1Br [LFM-A13] (first compound 1.4 µM, partner dose 2 µM) | 134
N.N.[Cl][Pt][Cl] [cisplatin] + COc1cc(Nc2ncc(F)c(Nc3ccc4c(n3)NC(=O)C(C)(C)O4)n2)cc(OC)c1OC [Tamatinib] (first compound 1.6 µM, partner dose 0.4 µM) | 128
N.N.[Cl][Pt][Cl] [cisplatin] + Nc1ncn([C@H]2C[C@H](O)[C@@H](CO)O2)c(=O)n1 [decitabine] (first compound 1.6 µM, partner dose 0.1 µM) | 98.2
CNC(=O)c1cc(Oc2ccc(NC(=O)Nc3ccc(Cl)c(C(F)(F)F)c3)cc2)ccn1 [sorafenib] + C[As](C)SC[C@H](NC(=O)CC[C@H](N)C(=O)O)C(=O)NCC(=O)O [Darinaparsin] (first compound 0.4 µM, partner dose 0.4 µM) | 97.8

Reprinted at random: two entries already listed
SMILES | cleaved PARP positive nuclei fraction [%]
COc1ccc(-c2ccc3c(N4CCOCC4)nc(N4C[C@@H](C)O[C@@H](C)C4)nc3n2)cc1CO + O=C(Oc1ccc([N+](=O)[O-])cc1)N1CCC(C(O)(c2ccc3c(c2)OCO3)c2ccc3c(c2)OCO3)CC1 [JZL184] (first compound 0.02 µM, partner dose 1 µM) | 102
C[C@]1(c2nc3c(C(N)=O)cccc3[nH]2)CCCN1 [Veliparib] + C/C(O)=C(\C#N)C(=O)Nc1cc(Br)ccc1Br [LFM-A13] (first compound 1.4 µM, partner dose 2 µM) | 134
